The source of these data is patent publication US20260265214A1, “NOVEL DERIVATIVES OF GLYCEROL” (SYMRISE AG, priority 2023, published 2026).

“Also recorded” adds a separate entry of the source.

The nature of data set [1]: Odor description of the prepared substances. Conditions: for Hedonic assessment / Odor character compared with the cis/trans-mixture and the other isomer: pure isomers from Spaltrohr-column distillation; for Odor description: substance as obtained.
The nature of data set [2]: Evaluation on blotter (strength, dry down).
Data set [3] is described as follows: Perfume oils in all-purpose cleaner, pH neutral, evaluated blind by a panel of trained perfumers. As to conditions: 30 of 1000 parts in perfume oil, oil at 0.3% in all-purpose cleaner.
Data set [4] in a line: Perfume oils in body lotion, evaluated blind by a panel of trained perfumers. As to conditions: 100 of 1000 parts in perfume oil, oil at 0.3% in body lotion.
Data set [5] can be described thus: Perfume oils in eau de toilette, evaluated blind by a panel of trained perfumers. As to conditions: 250 of 1000 parts in perfume oil, oil at 10% in eau de toilette; for Strength of the fragrance compared to the version with only solvent: vs perfume oil 11.
For data set [6] the following is noted: background description; cited from earlier work.

In the case of `C=CCOCC1COC(CCCCCC)O1` (stereo not drawn) [pure trans-configured 4-(allyloxymethyl)-2-hexyl-1,3-dioxola] [4-(allyloxymethyl)-2-hexyl-1,3-dioxolane], in data set [1], the Hedonic assessment entry is reported as “hedonically clearly preferred”; the “Odor character compared with the cis/trans-mixture and the other isomer” value is “more pronounced and complex floral jasmine odor, with a more distinct airy character, with more body and more transparency”; the Odor description result is given as “Fresh, hesperidic, jasmine, reminiscent of methyl dihydrojasmonate”. For the same compound, the Lasting entry in data set [2] was “lasts longer than the cis-isomer”. Besides, in data set [2] (also upon dry down), the Strength on blotter result is given as “distinctly stronger than the cis-isomer”.

Regarding `CCCCCCC1OCC(OC)CO1` (single isomer, unassigned; isomer 2) [trans-Configured 2-hexyl-5-methoxy-1,3-dioxane isomer, 2-hexyl-5-methoxy-1,3-dioxane], the Odor description result in data set [1] is recorded as “Floral, metallic, fruity, jasminic, with aspects of cognac”. The same measure, in the same setting: the entry for “(2′-Hexyl-1′,3′-dioxan-5′-yl)acetate [cis-(2′-Hexyl-1′,3′-dioxan-5′-yl)acetate]” is “Floral, jasminic, solvent, champignon aspects, metallic undertone”; for `C=CCOCC1COC(CCCCCC)O1` (mixture of isomers) [4-(Allyloxymethyl)-2-hexyl-1,3-dioxolane (cis:trans mixture ] it is “Floral, soft, jasminic, reminiscent of methyl dihydrojasmonate, with tea aspects and milky-creamy facets”.

On to `C=CCOCC1COC(CCCCCC)O1` (stereo not drawn) [Example 2.1, 4-(allyloxymethyl)-2-hexyl-1,3-dioxolane], for which the Odor description entry in data set [1] is on record as “Floral, soft-jasminic airy, solar, reminiscent of methyl dihydrojasmonate, faint champignon note”. In addition, the “Effect on floral freshness” value in data set [3] is reported as “improve more the floral freshness in a similar way to methyl dihydrojasmonate”. In addition, in data set [3] (pH neutral, vs version without (DPG, perfume oil 1)), the “Effect on the floral-jasmine note” value is given as “enhanced the floral-jasmine note compared to the version without”. The “Effect on creaminess and floral character” value in data set [4] was “enhance the creaminess of the fragrance and increase the floral character”. For the same compound, the “Effect on the top note” value in data set [4] (effect stronger than with methyl dihydrojasmonate) was “more distinct and fresher citrus bloom in the top note”. The “Covering of the odor of the body-lotion base” value in data set [4] (vs methyl dihydrojasmonate (perfume oil 7)) is recorded as “cover the odor of the body-lotion base much better than methyl dihydrojasmonate”. Also, in data set [5], the “Strength of the fragrance compared to the version with only solvent” value was “much stronger”. `C=CCOCC1COC(CCCCCC)O1` (stereo not drawn) [pure cis-configured 4-(allyloxymethyl)-2-hexyl-1,3-dioxolane]: in data set [1], the Hedonic assessment entry was “hedonically less pleasant”; the “Odor character compared with the cis/trans-mixture and the other isomer” value is “more of an aldehydic cyclamen character in addition to the jasmine note and it recalls faintly plastic”; the Odor description entry is “Fatty, floral, jasmine, with plastic and rubbery nuances, lacking freshness”. Consider `C=CCOCC1COC(CCCCCC)O1` (single isomer, unassigned; isomer 4) [Example 1 trans-isomer, 4-(allyloxymethyl)-2-hexyl-1,3-dioxolane], for which, in data set [1], the Odor description result is given as “Fresh, citric, jasminic, methyl dihydrojasmonate”. Still for that read-out and setting: for `CCCCCCC1OCC(COC(C)=O)O1` (mixture of isomers) [(2′-hexyl-1′,3′-dioxolan-4′-yl)methyl acetate] the value was “Floral, fruity, jasminic, metallic”; for `C=CCOCC1COC(CCCCCC)O1` (single isomer, unassigned; isomer 4) [Example 1 cis-isomer, 4-(allyloxymethyl)-2-hexyl-1,3-dioxolane], “Soft, floral, jasminic, slightly greasy”. Regarding `C=CCOC1COC(CCCCCC)OC1` (single isomer, unassigned; isomer 5) [cis-Configured 5-allyloxy-2-hexyl-1,3-dioxane isomer, 5-allyloxy-2-hexyl-1,3-dioxane], in data set [1], the Odor description entry is “soft, floral, green, with cardboard and earthy facets”. For the compound `CCCCCCC1OCC(OC)CO1` (single isomer, unassigned; isomer 2) [cis-Configured 2-hexyl-5-methoxy-1,3-dioxane isomer, 2-hexyl-5-methoxy-1,3-dioxane], in data set [1], the Odor description entry is recorded as “Floral, jasmine, with some aspects of champignons”. For the compound `CCCCCC1C(=O)CCC1CC(=O)OC` (stereo not drawn) [methyl dihydrojasmonate, methyl 2-(3′-oxo-2′-pentylcyclopentyl)acetate], in data set [5], the “Power compared with the version with product of Example 2.1” value is listed as “more powerful” and the “Strength of the fragrance compared to the version with only solvent” value is “much stronger”. Besides, the Odor result in data set [6] was “transparent floral-jasminic note accompanied by the soft-fruity freshness of lemons; also recorded: rather subtle and faint”. For `C=CCOC1COC(CCCCCC)OC1` (single isomer, unassigned; isomer 5) [trans-Configured 5-allyloxy-2-hexyl-1,3-dioxane isomer, 5-allyloxy-2-hexyl-1,3-dioxane], the Odor description result in data set [1] is given as “floral, lily-of-the-valley, jasminic, tea, milky, herbal”. Still for that read-out and setting: for `CCCCCCC1OCC(OCC(C)=O)CO1` (stereo not drawn) [1-[(2′-hexyl-1′,3′-dioxan-5′-yl)oxy]propan-2-one] the value was “fresh aldehydic, transparent white floral, jasminic, lily of the valley (muguet) with Florhydral aspects and some facets of green banana”. Consider “(2′-Hexyl-1′,3′-dioxan-5′-yl)acetate [trans-(2′-Hexyl-1′,3′-dioxan-5′-yl)acetate]”, for which the Odor description result in data set [1] was “Floral, jasminic, coconut, myrrh, rather weak”. Still for that read-out and setting: the entry for `CCCCCCC1OCC(COC)O1` (mixture of isomers) [2-hexyl-4-(methoxymethyl)-1,3-dioxolane] is “Floral, jasminic, with some metallic and green facets as well as slightly fatty, greasy facets”.
